These are yes or no findings as the source states them, for the method shown. Binding seen in cells or lysates may run through a third protein. Some binding calls cover weakened binding; strength is not graded here.
What was measured:
Assay in all cases: co-IP
[1] = target: myc-tagged LRRK2 (wild type) (human) (UniProt Q5S007)
[2] = target: myc-LRRK2 D1994A (kinase dead) (human) (UniProt Q5S007)
[3] = target: myc-LRRK2 G2019S (human) (UniProt Q5S007)
[4] = target: Myc-LRRK2 COR (human) (UniProt Q5S007)
[5] = target: Myc-LRRK2 kinase domain (human) (UniProt Q5S007)
[6] = target: Myc-LRRK2 Roc (human) (UniProt Q5S007)

Chains of the proteins cited; added tags and fusions are not shown. Lines headed by an entry give the natural chain unless they say otherwise; changes in a name come on top. Residues count along the entry.
UniProt Q5S007: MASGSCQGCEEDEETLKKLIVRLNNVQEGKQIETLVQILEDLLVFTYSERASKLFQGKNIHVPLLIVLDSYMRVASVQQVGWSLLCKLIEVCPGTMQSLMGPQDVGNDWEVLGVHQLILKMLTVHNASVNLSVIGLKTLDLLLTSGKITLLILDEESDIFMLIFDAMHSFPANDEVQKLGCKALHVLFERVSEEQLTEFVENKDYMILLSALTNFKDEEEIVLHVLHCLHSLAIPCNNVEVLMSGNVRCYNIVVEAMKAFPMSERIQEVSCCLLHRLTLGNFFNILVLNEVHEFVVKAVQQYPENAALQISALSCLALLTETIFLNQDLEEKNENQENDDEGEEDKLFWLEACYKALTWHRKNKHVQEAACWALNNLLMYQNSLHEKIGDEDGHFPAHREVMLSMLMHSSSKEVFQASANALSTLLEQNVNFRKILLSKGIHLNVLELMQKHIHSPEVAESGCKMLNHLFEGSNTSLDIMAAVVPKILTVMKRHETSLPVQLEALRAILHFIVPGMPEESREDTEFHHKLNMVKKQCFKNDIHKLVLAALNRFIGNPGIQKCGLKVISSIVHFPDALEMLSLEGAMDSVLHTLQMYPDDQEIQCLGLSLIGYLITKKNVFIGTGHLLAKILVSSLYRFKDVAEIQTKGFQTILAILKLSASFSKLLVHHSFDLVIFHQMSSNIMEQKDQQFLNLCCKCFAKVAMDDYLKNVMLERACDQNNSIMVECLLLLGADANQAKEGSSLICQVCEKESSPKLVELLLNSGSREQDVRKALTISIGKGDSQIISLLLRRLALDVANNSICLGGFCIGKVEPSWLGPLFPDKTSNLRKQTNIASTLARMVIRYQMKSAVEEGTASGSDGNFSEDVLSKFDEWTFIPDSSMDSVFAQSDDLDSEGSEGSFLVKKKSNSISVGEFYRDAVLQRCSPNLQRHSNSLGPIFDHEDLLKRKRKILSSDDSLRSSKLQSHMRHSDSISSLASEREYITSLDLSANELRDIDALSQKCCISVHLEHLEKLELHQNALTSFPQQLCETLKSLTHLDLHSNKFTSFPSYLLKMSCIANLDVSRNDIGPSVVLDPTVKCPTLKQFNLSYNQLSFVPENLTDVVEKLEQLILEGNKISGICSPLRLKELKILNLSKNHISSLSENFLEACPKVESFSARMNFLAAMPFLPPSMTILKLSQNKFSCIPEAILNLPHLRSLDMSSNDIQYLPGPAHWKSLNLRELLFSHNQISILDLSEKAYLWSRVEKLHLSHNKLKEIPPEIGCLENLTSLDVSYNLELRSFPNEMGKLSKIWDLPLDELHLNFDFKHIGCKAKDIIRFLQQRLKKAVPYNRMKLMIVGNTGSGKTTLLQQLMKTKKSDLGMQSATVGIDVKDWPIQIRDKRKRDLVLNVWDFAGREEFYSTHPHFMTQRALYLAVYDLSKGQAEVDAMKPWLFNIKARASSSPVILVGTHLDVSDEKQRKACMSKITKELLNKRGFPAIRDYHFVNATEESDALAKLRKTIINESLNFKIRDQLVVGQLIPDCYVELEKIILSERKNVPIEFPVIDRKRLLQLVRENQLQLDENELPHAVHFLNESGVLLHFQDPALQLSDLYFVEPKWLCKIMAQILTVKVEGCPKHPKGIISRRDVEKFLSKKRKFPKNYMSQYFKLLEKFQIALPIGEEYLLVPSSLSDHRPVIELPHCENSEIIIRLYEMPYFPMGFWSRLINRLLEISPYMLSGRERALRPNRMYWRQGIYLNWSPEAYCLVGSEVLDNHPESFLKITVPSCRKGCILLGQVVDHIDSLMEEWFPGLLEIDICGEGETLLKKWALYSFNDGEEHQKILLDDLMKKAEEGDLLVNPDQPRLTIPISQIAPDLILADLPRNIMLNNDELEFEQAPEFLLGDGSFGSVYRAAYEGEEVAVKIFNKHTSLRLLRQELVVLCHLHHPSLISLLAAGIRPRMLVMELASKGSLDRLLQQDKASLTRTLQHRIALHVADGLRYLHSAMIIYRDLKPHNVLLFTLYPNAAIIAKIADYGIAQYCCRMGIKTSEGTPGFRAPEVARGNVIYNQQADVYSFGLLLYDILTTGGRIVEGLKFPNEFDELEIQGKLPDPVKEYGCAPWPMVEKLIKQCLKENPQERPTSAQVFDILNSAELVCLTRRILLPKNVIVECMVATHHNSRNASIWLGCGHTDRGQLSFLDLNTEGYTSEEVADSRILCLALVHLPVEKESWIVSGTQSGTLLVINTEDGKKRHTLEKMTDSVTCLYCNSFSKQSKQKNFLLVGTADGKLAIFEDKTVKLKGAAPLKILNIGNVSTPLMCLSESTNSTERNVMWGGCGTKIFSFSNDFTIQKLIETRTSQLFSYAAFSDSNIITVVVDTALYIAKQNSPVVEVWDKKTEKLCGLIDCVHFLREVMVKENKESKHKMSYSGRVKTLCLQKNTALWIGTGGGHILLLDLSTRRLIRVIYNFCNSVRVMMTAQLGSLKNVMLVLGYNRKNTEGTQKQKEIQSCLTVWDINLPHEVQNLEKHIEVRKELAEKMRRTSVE
Myc-LRRK2 Roc: residues 1328-1511 of Q5S007
Myc-LRRK2 COR: residues 1546-1740 of Q5S007
Myc-LRRK2 kinase domain: residues 1879-2138 of Q5S007
UniProt Q9UBN7: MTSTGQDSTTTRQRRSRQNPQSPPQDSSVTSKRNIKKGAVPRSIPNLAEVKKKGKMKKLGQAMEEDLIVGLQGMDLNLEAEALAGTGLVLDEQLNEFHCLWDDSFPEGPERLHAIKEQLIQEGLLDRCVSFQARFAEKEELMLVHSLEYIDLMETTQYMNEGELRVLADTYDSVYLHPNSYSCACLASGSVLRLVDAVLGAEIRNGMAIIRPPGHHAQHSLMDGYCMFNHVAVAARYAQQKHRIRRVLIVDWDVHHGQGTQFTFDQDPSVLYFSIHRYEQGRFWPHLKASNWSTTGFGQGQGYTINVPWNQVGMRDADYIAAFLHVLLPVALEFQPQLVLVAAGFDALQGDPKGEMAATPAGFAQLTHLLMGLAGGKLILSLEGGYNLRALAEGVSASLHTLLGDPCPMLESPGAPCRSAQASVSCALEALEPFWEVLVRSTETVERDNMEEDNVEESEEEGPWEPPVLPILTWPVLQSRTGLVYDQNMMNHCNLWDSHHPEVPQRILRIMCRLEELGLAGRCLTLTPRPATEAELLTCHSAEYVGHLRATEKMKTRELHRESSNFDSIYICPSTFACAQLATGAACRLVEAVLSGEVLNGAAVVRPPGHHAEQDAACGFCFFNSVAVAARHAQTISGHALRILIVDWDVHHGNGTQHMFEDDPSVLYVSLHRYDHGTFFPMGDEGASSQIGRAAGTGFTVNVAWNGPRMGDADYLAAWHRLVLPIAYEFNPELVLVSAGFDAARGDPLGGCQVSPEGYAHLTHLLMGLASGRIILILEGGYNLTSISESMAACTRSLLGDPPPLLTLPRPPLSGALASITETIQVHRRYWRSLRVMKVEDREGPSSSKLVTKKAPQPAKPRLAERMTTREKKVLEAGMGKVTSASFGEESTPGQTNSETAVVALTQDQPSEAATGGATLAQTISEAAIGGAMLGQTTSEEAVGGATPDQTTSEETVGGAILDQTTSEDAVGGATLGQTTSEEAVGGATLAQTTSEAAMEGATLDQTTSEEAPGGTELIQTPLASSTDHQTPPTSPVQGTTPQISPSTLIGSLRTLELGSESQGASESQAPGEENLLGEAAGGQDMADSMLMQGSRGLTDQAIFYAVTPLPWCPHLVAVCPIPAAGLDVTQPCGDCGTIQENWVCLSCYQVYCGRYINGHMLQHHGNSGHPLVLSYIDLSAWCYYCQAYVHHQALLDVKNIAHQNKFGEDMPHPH

| binding [1] | binding [2] | binding [3] | binding [4] | binding [5] | binding [6] | Substance |
| --- | --- | --- | --- | --- | --- | --- |
| binds | binds | binds | – | – | – | FLAG-HDAC6 full-length (wild type) (from UniProt Q9UBN7 1-1215) (enzyme) |
| binds | – | – | binds weakly | no binding | binds | untagged HDAC6 (from UniProt Q9UBN7 1-1215) (enzyme) |

— paper doi:10.1101/554881
